Experimental data published in PubChem BioAssay AID540303 (National Center for Advancing Translational Sciences (NCATS), 2011).
The whole screen tested about 330,000 compounds, of which about 1,000 (0.3%) were called active. Inconclusive results, whose numbers are uncertain, are shown with a selection of clear calls. Calls follow the shape of the dose curve; as a rule, active = well fitted inhibition curve with a large enough effect; inconclusive = small, poorly fitted or top-dose-only effect; inactive = no such curve, though single readings can be large or run the other way; tested in mouse RAW 264.7 cells. Potencies beside an inconclusive call are fits to weak or partial responses and may not hold up.

Assay: qHTS for Inhibitors of Cell Surface uPA Generation; also: nearly all actives have a fitted effect of over 55% in size
Conditions: cell surface uPA generation assay; series mostly up to 38.3 µM
Procedure, shortened: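 RAW 264.7 cells, 4000/well, given compound (1:5 dilutions, up to 38.3 uM final) and incubated 24 h at 37 C. Blocked uPA-dependent LF entry keeps ATP high; ATPlite luminescence read, 5 s exposure.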
Potency is read from the fitted curve at half-maximal effect.

Structure (SMILES)	Potency
O=C1/C(=C/Nc2ccc3c(c2)OCO3)CCc2ccccc21	inactive
Cc1ncc(CO)c2c1Oc1nc(-c3ccccc3)nc(SCC(=O)Nc3cccc(O)c3)c1C2	inactive
COc1ccc(-c2cccc([C@H]3[C@@H]4C=CCC[C@@]4(C)C(=O)N3Cc3ccccc3)c2)cc1	inconclusive: 7.08 µM [inhibitor, partial curve, poor fit]
CC(NS(=O)(=O)OCC(Cl)(Cl)Cl)c1ccc(C(C)(C)C)cc1 (centres undefined)	inconclusive: 12.6 µM [inhibitor, single point]
COc1ccc2c(c1)OC[C@H]1[C@H]2N2C(=O)c3cc(F)ccc3NC(=O)[C@@]2(C)[C@H]1c1ccccc1	inconclusive: 28.2 µM [inhibitor, single point]
CCCN(CCC)CC(O)Cn1cc(/C=C/C(=O)c2cccs2)c2ccccc21 (centres undefined)	inconclusive: 20 µM [inhibitor, single point]
Cn1cnc([N+](=O)[O-])c1S(=O)(=O)c1cccc(Cl)c1	inconclusive: 1.78 µM [inhibitor, full curve, poor fit]
Nc1nc(N2CCOCC2)n[nH]1	inactive
COc1ccc(N2C(=O)c3ccccc3NC2c2ccccc2O)cc1 (centres undefined)	inconclusive: 7.08 µM [inhibitor, single point]
CCN(C(=O)Cc1ccc(Br)cc1)C1CCCCC1	inactive
O=C(CNC(=O)c1cccs1)Nc1ccncc1	inactive
C=CCCC(=O)Nc1nc(C)c(-c2csc(Nc3cc(Cl)ccc3OC)n2)s1	inconclusive: 8.91 µM [inhibitor, single point]
COc1ccc([N+](=O)[O-])c(S(=O)(=O)c2ccccc2)n1	inconclusive: 4.47 µM [inhibitor, partial curve, poor fit]
O=C(Nc1ccccc1)O/N=C/c1ccc(F)cc1	active: 7.08 µM
CCOC(=O)N1CCN(c2c(NCCN(C)Cc3ccccc3)c(=O)c2=O)CC1	inconclusive: 3.55 µM [inhibitor, partial curve, poor fit]
COc1ccc2cc(S(=O)(=O)c3ccccc3)c(=O)oc2c1	inconclusive: 6.31 µM [inhibitor, single point]
CC1(C)Cc2c(sc3ncnc(NNC(=S)NCc4ccccc4)c23)CO1	inconclusive: 0.708 µM [inhibitor, full curve, poor fit]
Clc1ccc(CN2C3=NCCCN3c3ccccc32)cc1	inactive
COc1cc(SC)ccc1C(=O)Nc1ccc(OCC(=O)N2CCOCC2)cc1	inconclusive: 6.31 µM [inhibitor, partial curve, poor fit]
CC(C)CCC(O)(CCC(C)C)C(=O)NN1CCCCC1	inactive
CC1CN(c2nnc(-c3ccccc3)c3ccccc23)CC(C)O1 (centres undefined)	inactive
CC1CCN(c2ccc3c(c2)S(=O)(=O)c2cccc(C(=O)O)c2C3=O)CC1	inconclusive: 10 µM [inhibitor, single point]
COc1ccc(COc2cc(-c3cccc(OC)c3)nc3ccc(NC(=O)c4ccc(OC)cc4)cc23)cc1	inconclusive: 6.31 µM [inhibitor, partial curve, poor fit]

Structure (SMILES)	Potency
COC(=O)CN(c1cc(C(F)(F)F)ccc1Cl)S(C)(=O)=O	inactive
O=C(CN1C(=O)CC(c2ccco2)Sc2ccccc21)Nc1ccccc1F (centres undefined)	inconclusive: 10 µM [inhibitor, partial curve, poor fit]
O=C1[C@@H](c2ccccc2)[C@@H](c2ccccc2)N1c1cccnc1	inconclusive: 28.2 µM [inhibitor, single point]
CC(=O)OC1CCC2(C)C(=CCC3C4CC(=O)N(O)C(=O)C4(C)CCC32)C1 (centres undefined)	inactive
COc1cccc(CC(NC(C)=O)C(=O)NC2CCN(C(=O)Nc3ccc(C)cc3)CC2)c1 (centres undefined)	inactive
Cc1nc2ccc(S(=O)(=O)Nc3cc(-c4nc5cccnc5s4)ccc3C)cc2s1	inconclusive: 8.91 µM [inhibitor, single point]
O=C(COC(=O)[C@@H]1CC(O)CN1S(=O)(=O)c1ccc(Cl)cc1)NC(=O)NCc1ccccc1 (some centres undefined)	inactive
Cc1cc(C(=O)Nc2ccc3c(c2)OCCO3)co1	inconclusive: 3.98 µM [inhibitor, partial curve, poor fit]
O=C(Nc1nnc(C2CC2)s1)c1ccc(Cl)nc1	inconclusive: 7.08 µM [inhibitor, partial curve, poor fit]
C/C(=N\O)c1sc(-c2ccccc2)nc1C	inactive
Cc1ccc(NC(=O)c2cnn(-c3ccccc3)c2C)cc1	inconclusive: 11.2 µM [inhibitor, partial curve, poor fit]
CC(=O)Nc1ccc(S(=O)(=O)Nc2nc3ccccc3nc2Nc2ccc3ccccc3c2)cc1	inactive
O=c1[nH]c(/C=C/c2ccc(Br)cc2)nc2ccccc12	inconclusive: 0.0141 µM [inhibitor, full curve, poor fit]
O=C1c2ccccc2-c2onc3ccc(N4CCCC4)c1c23	inconclusive: 31.6 µM [inhibitor, partial curve, poor fit]
CC(=O)N1CCN(C(=O)CNC(=O)c2cccs2)CC1	inconclusive: 2.82 µM [inhibitor, single point]
CCCCCOc1ccc(Br)cc1CSC(=N)N	inconclusive: 7.08 µM [inhibitor, partial curve, poor fit]
O=C(O)c1ccc(COc2ccc3ccccc3c2/C=C2/NC(=O)N(Cc3ccc(F)cc3)C2=O)cc1	inactive
CCc1ccc(NC(=O)C2CCN(S(=O)(=O)c3ccc4c(c3)CC(C)N4C(C)=O)CC2)cc1 (centres undefined)	inconclusive: 6.31 µM [inhibitor, single point]
Cc1ccc(S(=O)(=O)c2ncccc2[N+](=O)[O-])cc1	active: 3.98 µM
COc1ccc(NC(=O)CSc2nnc(N)s2)cc1S(=O)(=O)N1CCCCC1	inconclusive: 0.0089 µM [inhibitor, full curve, poor fit]
CN(Cc1ccccc1)C(=O)c1[nH]cnc1C(=O)Nc1ccc(Cl)cc1	inconclusive: 12.6 µM [inhibitor, single point]
CC1CC(C)CN(CCCNC(=O)c2ccc3c(c2)N(Cc2ccccc2)C(=O)c2ccccc2S3=O)C1 (centres undefined)	inconclusive: 7.08 µM [inhibitor, partial curve]
O=C(COc1cccnc1[N+](=O)[O-])c1ccc(Cl)s1	inactive

Arranged by heavy-atom count (high to low): some entries from above.
Structure (SMILES)	Potency
COc1ccc(COc2cc(-c3cccc(OC)c3)nc3ccc(NC(=O)c4ccc(OC)cc4)cc23)cc1	inconclusive: 6.31 µM [inhibitor, partial curve, poor fit]
CC1CC(C)CN(CCCNC(=O)c2ccc3c(c2)N(Cc2ccccc2)C(=O)c2ccccc2S3=O)C1 (centres undefined)	inconclusive: 7.08 µM [inhibitor, partial curve]
Cc1ncc(CO)c2c1Oc1nc(-c3ccccc3)nc(SCC(=O)Nc3cccc(O)c3)c1C2	inactive
COc1ccc2c(c1)OC[C@H]1[C@H]2N2C(=O)c3cc(F)ccc3NC(=O)[C@@]2(C)[C@H]1c1ccccc1	inconclusive: 28.2 µM [inhibitor, single point]
COc1cccc(CC(NC(C)=O)C(=O)NC2CCN(C(=O)Nc3ccc(C)cc3)CC2)c1 (centres undefined)	inactive
Cc1nc2ccc(S(=O)(=O)Nc3cc(-c4nc5cccnc5s4)ccc3C)cc2s1	inconclusive: 8.91 µM [inhibitor, single point]
COc1cc(SC)ccc1C(=O)Nc1ccc(OCC(=O)N2CCOCC2)cc1	inconclusive: 6.31 µM [inhibitor, partial curve, poor fit]
C=CCCC(=O)Nc1nc(C)c(-c2csc(Nc3cc(Cl)ccc3OC)n2)s1	inconclusive: 8.91 µM [inhibitor, single point]
CC(=O)OC1CCC2(C)C(=CCC3C4CC(=O)N(O)C(=O)C4(C)CCC32)C1 (centres undefined)	inactive
COc1ccc(N2C(=O)c3ccccc3NC2c2ccccc2O)cc1 (centres undefined)	inconclusive: 7.08 µM [inhibitor, single point]
CC1CN(c2nnc(-c3ccccc3)c3ccccc23)CC(C)O1 (centres undefined)	inactive
O=C1[C@@H](c2ccccc2)[C@@H](c2ccccc2)N1c1cccnc1	inconclusive: 28.2 µM [inhibitor, single point]
CC(NS(=O)(=O)OCC(Cl)(Cl)Cl)c1ccc(C(C)(C)C)cc1 (centres undefined)	inconclusive: 12.6 µM [inhibitor, single point]
Clc1ccc(CN2C3=NCCCN3c3ccccc32)cc1	inactive
O=c1[nH]c(/C=C/c2ccc(Br)cc2)nc2ccccc12	inconclusive: 0.0141 µM [inhibitor, full curve, poor fit]
Cn1cnc([N+](=O)[O-])c1S(=O)(=O)c1cccc(Cl)c1	inconclusive: 1.78 µM [inhibitor, full curve, poor fit]
CCCCCOc1ccc(Br)cc1CSC(=N)N	inconclusive: 7.08 µM [inhibitor, partial curve, poor fit]
C/C(=N\O)c1sc(-c2ccccc2)nc1C	inactive
Nc1nc(N2CCOCC2)n[nH]1	inactive

The listing continues:

Structure (SMILES)	Potency
CC(C)=C1C2CCC1C1C(=O)N(c3nc(-c4ccccc4)c(C)s3)C(=O)C21 (centres undefined)	inactive
CCN(CC)CCNC(=O)c1cc2c(-c3ccc(Cl)cc3)nn(C)c2s1	inconclusive: 12.6 µM [inhibitor, partial curve, poor fit]
Cc1ccc(N2C(=O)c3cccc4c(N5CCN(C)CC5)ccc(c34)C2=O)c2cccnc12	inconclusive: 12.6 µM [inhibitor, single point]
O=C(NC1(Cc2ccccc2)CCN(CCCc2ccccc2)C1=O)c1ccccc1 (centres undefined)	inconclusive: 28.2 µM [inhibitor, single point]
COc1ccc(C(=O)Nc2nnc(CCc3ccccc3)s2)c(OC)c1	inconclusive: 0.562 µM [inhibitor, full curve, poor fit]
Nc1ccccc1C#Cc1cnccn1	inconclusive: 1.58 µM [inhibitor, partial curve, poor fit]
COC(=O)C(NNc1ccccc1C)(NC(=O)c1ccc(F)cc1)C(F)(F)F (centres undefined)	inactive
Cc1ccc(Cl)cc1N1CCN(S(C)(=O)=O)CC1	inactive
CCn1c(SCc2ccccc2)nc2c1c(=O)[nH]c(=O)n2C	inconclusive: 11.2 µM [inhibitor, single point]
CCc1ccc(OCc2n[nH]c(=S)n2Cc2ccccc2)cc1	inactive
CC(=O)N1c2ccc(S(=O)(=O)NCCC(=O)NC3CCCC(C)C3C)cc2CC1C (centres undefined)	inactive
CCc1nnc(N/N=C/c2c(Cl)cccc2Cl)n1N	inactive
CCCCNC(=O)C(C)N(CCN(C)C)C(=O)CCCN1C(=O)NC(c2ccc([N+](=O)[O-])cc2)C(C(=O)OCc2ccccc2)=C1C (centres undefined)	inconclusive: 20 µM [inhibitor, single point]
CC(C)(C)c1cc2ncnc(N3CCCCC3)c2s1	inactive
CC(C)(C)c1cc(C(c2cccnc2)N2CCN(CCO)CC2)cc(C(C)(C)C)c1O (centres undefined)	inconclusive: 31.6 µM [inhibitor, single point]
CCCNC(=O)CSc1ccc(S(=O)(=O)N2CCCCC2)cn1	inconclusive: 14.1 µM [inhibitor, partial curve, poor fit]
O=C(N=c1nc2ccccn2s1)c1ccccc1	inconclusive: 1 µM [inhibitor, full curve, poor fit]
O=C(Cc1cccs1)Nc1ccc(S(=O)(=O)Nc2ncccn2)cc1	inactive
S=c1nc2ccccc2c2nc(-c3ccccc3Br)[nH]n12	inactive
CC(C)(C)c1ccc(C(=O)NCc2ccco2)cc1	inconclusive: 10 µM [inhibitor, partial curve, poor fit]
CC(C(=O)O)c1ccc(N2Cc3ccccc3C2=O)cc1 (centres undefined)	inconclusive: 4.47 µM [inhibitor, partial curve]
CO[C@@]12[C@H](COC(N)=O)C3=C(C(=O)C(C)=C(N)C3=O)N1C[C@@H]1N[C@@H]12	inconclusive: 3.98 µM [inhibitor, partial curve]
CCN(CC(=O)Nc1ccc(NC(C)=O)cc1)C(=O)c1ccccc1Sc1ccccc1C#N	inconclusive: 1 µM [inhibitor, partial curve, poor fit]
